Measurements as given in PubChem BioAssay AID1259354 (Paczesny and Yang Labs, IUPUI and University of Michigan, 2018).
Where “and” joins values, the source holds several entries; their conditions need not be identical. Equal entries are not always repeated. The whole screen tested about 78,000 compounds, of which about 1,800 (2.3%) were called active. Inconclusive means that the source gave no clear call. Such entries were picked first, then a sample of the others. No stated cut-off is given here; in the data, active means inhibition above about 30%; inconclusive means mostly about 10% to 28%; inactive means weaker than that.

By UniProt entry, the sequences of proteins in these tests, tags left out. Where a name states a change or a piece, a line headed by the entry shows the natural chain unless it says otherwise.
UniProt Q01638: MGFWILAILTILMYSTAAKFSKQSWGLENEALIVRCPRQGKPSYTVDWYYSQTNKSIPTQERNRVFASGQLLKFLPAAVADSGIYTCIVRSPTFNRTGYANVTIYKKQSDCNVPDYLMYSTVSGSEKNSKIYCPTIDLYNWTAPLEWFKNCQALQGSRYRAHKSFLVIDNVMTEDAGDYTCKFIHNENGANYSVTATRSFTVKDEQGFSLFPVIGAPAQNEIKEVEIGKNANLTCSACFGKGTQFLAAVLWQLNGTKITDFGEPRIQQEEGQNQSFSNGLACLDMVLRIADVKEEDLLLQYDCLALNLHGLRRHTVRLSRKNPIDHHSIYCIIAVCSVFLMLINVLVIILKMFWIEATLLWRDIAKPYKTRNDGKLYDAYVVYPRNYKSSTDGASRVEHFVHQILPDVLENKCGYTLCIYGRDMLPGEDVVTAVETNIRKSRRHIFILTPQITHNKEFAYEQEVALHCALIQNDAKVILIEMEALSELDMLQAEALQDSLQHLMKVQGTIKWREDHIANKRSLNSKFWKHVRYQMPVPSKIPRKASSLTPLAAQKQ

These molecules were tested against Interleukin-1 receptor-like 1 (Homo sapiens) (UniProt Q01638) (assay: blocks human ST2 binding to IL-33, primary screen, biochemical, AlphaLISA (AID 1259354)). Settings: AlphaLISA ST2-Fc/biotin-IL-33 interaction, 1 h; at 17 µM, active compounds read high.

| Structure (SMILES) | inhibition |
| --- | --- |
| O=C(O)/C=C/C(O)c1ccc(Cl)cc1 (stereo unspecified) | inconclusive: 12% |
| CCn1ccnc1-c1c(-c2ccccc2)ncn1CCc1ccncc1 | inconclusive: 16% |
| CC(c1ccc(-c2cnn3cccnc23)cc1)N1CCCC1 (stereo unspecified) | inconclusive: 11% |
| CCC(=O)c1ccc(OC(=O)C(C(C)C)N2C(=O)c3ccccc3C2=O)cc1 (stereo unspecified) | inconclusive: 22% |
| COc1cccc(Cn2c(CNC(=O)c3cc(OC)cc(OC)c3)nc3cccnc32)c1 | inconclusive: 15% |
| COc1ccccc1C(=O)NCc1nc2cccnc2n1Cc1ccc(C)cc1 | inconclusive: 14% |
| Cn1cc(CNCc2ccc3[nH]c4c(c3c2)CCCCCC4)cn1 | inconclusive: 28% |
| COC(=O)C(CCSC)NC(=O)c1csc2nc(-c3ccccc3)cn12 (stereo unspecified) | inconclusive: 24% |
| Cc1ccc(C)c(C(Nc2ccccn2)c2ccc3cccnc3c2O)c1 (stereo unspecified) | inconclusive: 11% |
| COc1cc(C)c2c(OC)c(C)c(=O)oc2c1OC | inactive |
| COc1cc(OC)c(CN2CCN(c3ccc([N+](=O)[O-])cc3)CC2)cc1Br | inconclusive: 13% |
| COc1ccc(Nc2ncnc3c2cnn3-c2ccc(C)cc2C)cc1OC | inactive |
| c1cncc(OCCCNC2CCC3(CCNCC3)CC2)c1 | inconclusive: 15% |
| O=C(CCC1(Cc2cccc3ccccc23)CCC(=O)N1)NCc1cc2ccccc2s1 (stereo unspecified) | inactive |
| Cn1cc(C(=O)N2CCN(c3ccc(F)cc3)CC2)c2c3ccccc3n(C)c2c1=O | inactive |
| Cn1nc(-c2ccc(Cl)cc2)c2cc(C(=O)N3CCN(C(=O)c4ccco4)CC3)sc21 | inconclusive: 15% |
| Nc1ncnc(Sc2nc3ccccc3o2)c1[N+](=O)[O-] | inconclusive: 27% and inconclusive: 17% |
| CCN(CC)c1ccc(N)c(C)c1 | active: 53% |
| CCc1sc(C2C(C(=O)OC)=C(C)NC3=C2C(=O)CCC3)cc1Br (stereo unspecified) | inactive |
| Cc1[nH]c2ccccc2c1C(NS(=O)(=O)c1ccccc1)C(Cl)(Cl)Cl (stereo unspecified) | inconclusive: 12% |
| CNc1ccc(-c2noc([C@@H]3CCCN3Cc3ccc(Cl)cc3)n2)cn1 | inactive |

| Structure (SMILES) | inhibition |
| --- | --- |
| CN1CC2(CCCN(C(=O)C3=Cc4ccccc4OC=C3)C2)OC1=O (stereo unspecified) | inconclusive: 21% |
| O=C1S/C(=C\c2ccccc2)C(=O)N1c1ccc(O)cc1 | inconclusive: 25% |
| CCc1ccnc(NC(=O)c2cccc(CN3CC[C@H](O)C3)c2)c1 | inactive |
| Cc1ccc(S(=O)(=O)CCC(=O)c2ccc(O)cc2O)cc1 | inconclusive: 11% |
| O=C1CCC(=O)N1C1c2ccccc2Oc2ccccc21 | inactive |
| O=[N+]([O-])c1ccccc1S(=O)(=O)NC12CC3CC(CC(C3)C1)C2 | inconclusive: 20% |
| CCC1(c2ccccc2)C(=O)NCNC1=O | inactive |
| Cc1cc(=O)[nH]c(Sc2c(-c3ccccc3)c3ccccc3[nH]c2=O)n1 | inconclusive: 12% |
| Cc1ccccc1-c1cc(O)c2c(c1)CN(CCCn1nnnc1C)CCO2 | inactive |
| COCC(=O)NC[C@@H]1C=C(C)[C@H](CC(=O)N2CCOCC2)C[C@H]1C(C)C | inconclusive: 13% |
| COc1ccccc1N1CCN(c2ncnc3sc4c(c23)CCC4)CC1 | inconclusive: 20% |
| Cc1[nH]nc(CCC(=O)N2CC(c3cccnc3)C2)c1C | inactive |
| COC(OC)C12c3ccccc3C(c3ccccc31)[C@@H]1C(=O)N(c3ccc(C(C)=O)cc3)C(=O)[C@@H]12 | inconclusive: 20% |
| COc1ccc(C(=O)c2oc3ccccc3c2NC(=O)c2ccco2)cc1 | active: 31% |
| Cc1cccc(C(C)(C)C)c1OCCCN1CCN(C)CC1 | inconclusive: 11% |
| CCN(CC)c1ccc(C2C(C(=O)Nc3cc(C)ccn3)=C(C)NC3=C2C(=O)CC(C)(C)C3)cc1 (stereo unspecified) | inactive |
| O=C(O)c1cc(-c2cccc(-n3cccn3)c2)cc(S(=O)(=O)N2CCCC2)c1 | inconclusive: 13% |
| COc1ccc(C2SCCN2S(=O)(=O)c2ccc(-c3ccccc3)cc2)cc1 (stereo unspecified) | inactive |
| CC(=O)N[C@H](C(=O)O)C(C)(C)SN=O | inconclusive: 14% |
| O=C(Cn1cnc2c(oc3ccccc32)c1=O)NCCc1ccccc1 | inconclusive: 10% |
| O=[N+]([O-])c1ccc(-n2cnc3ccccc32)nc1 | inconclusive: 13% |

| Structure (SMILES) | inhibition |
| --- | --- |
| COc1ccc(-n2nc3nc[nH]c(=O)c3n2)cc1 | inconclusive: 13% |
| O=C(NC1CCCCC1)N[C@H]1CO[C@H]2[C@@H]1OC[C@H]2OC(=O)Nc1cccc2ccccc12 | inconclusive: 16% |
| COc1ccc(-c2nc3ccccc3o2)cc1NC(=O)C(C)C | inactive |
| CCOc1cccc2c1OC1(C)C(C)C2NC(=O)N1c1ccc(Cl)cc1 (stereo unspecified) | inactive |
| CCOc1cc(C)c(Cl)cc1S(=O)(=O)N1CCNC(C(=O)O)C1 (stereo unspecified) | inactive |
| O=C(Cn1cnc2c(cnn2-c2ccc(F)cc2)c1=O)N1CCCCC1 | inactive |
| COC(=O)c1ccc(Cn2cnc3c(cnn3-c3ccccc3)c2=O)o1 | inactive |
| C=C(C(=O)O)C1CC(OC(=O)CC(C)CC)C2(C)CCCC(=C)C2C1 (stereo unspecified) | inconclusive: 14% |
| COc1ccc(-c2ccnc(N[C@H]3CO[C@H]4[C@@H]3OC[C@@H]4NS(=O)(=O)c3cccc4cccnc34)n2)cc1 | inactive |
| Cc1nc(CC(=O)NCCn2[nH]c(=O)ccc2=O)c(C)s1 | inconclusive: 11% |
| Oc1cccc(C=Nc2ccc(Cl)c(Cl)c2)c1O | inactive |
| CC(C)C1=NOC(c2nc(C3CC3)nn2-c2ccc3c(c2)OCCO3)C1 (stereo unspecified) | inconclusive: 17% |
| O=C(c1ccc(CO)o1)N1CCOC(c2ccc(Cl)cc2)C1 (stereo unspecified) | inconclusive: 13% |
| COc1cc(/C=C2\C(=O)N(c3ccc(Cl)c(C(=O)O)c3)N=C2C)cc(Br)c1O | active: 75% |
| COc1cc2c(C(=O)N3CCN(c4ccccn4)CC3)cn(C)c(=O)c2cc1OC | inconclusive: 17% |
| Cc1cccn2c(CC(=O)N3CCCC3Cn3cccn3)cnc12 (stereo unspecified) | inactive |
| CC(C)(C)C1CCc2onc(C(=O)Nc3ccc(C#N)cc3)c2C1 (stereo unspecified) | inactive |
| c1ccc(CCc2noc(CN3CCC(N4CCSCC4)CC3)n2)cc1 | inconclusive: 19% |
| CC(C)N1CCNC(=O)C1CC(=O)NCC1(Cn2cccn2)CC1 (stereo unspecified) | inconclusive: 17% |

A second format for part of the listing above.
Structure (SMILES)	inhibition
CCc1ccnc(NC(=O)c2cccc(CN3CC[C@H](O)C3)c2)c1	inactive
CCN(CC)c1ccc(C2C(C(=O)Nc3cc(C)ccn3)=C(C)NC3=C2C(=O)CC(C)(C)C3)cc1 (stereo unspecified)	inactive
COc1cc(/C=C2\C(=O)N(c3ccc(Cl)c(C(=O)O)c3)N=C2C)cc(Br)c1O	active: 75%
